Test results from the M2OR odorant receptor database.
The list shows a part of the results, in another mix than the full data. Calls are pooled over several reports, among them a noisy single-well screen. The list shows a part of the results.

How the values were obtained:
Conditions in all cases: stereoisomer not certain
OR5T1 (Homo sapiens) = molecular target: T1, OR5T1 (Homo sapiens) (UniProt Q8NG75)
T1 sequence (whole entry): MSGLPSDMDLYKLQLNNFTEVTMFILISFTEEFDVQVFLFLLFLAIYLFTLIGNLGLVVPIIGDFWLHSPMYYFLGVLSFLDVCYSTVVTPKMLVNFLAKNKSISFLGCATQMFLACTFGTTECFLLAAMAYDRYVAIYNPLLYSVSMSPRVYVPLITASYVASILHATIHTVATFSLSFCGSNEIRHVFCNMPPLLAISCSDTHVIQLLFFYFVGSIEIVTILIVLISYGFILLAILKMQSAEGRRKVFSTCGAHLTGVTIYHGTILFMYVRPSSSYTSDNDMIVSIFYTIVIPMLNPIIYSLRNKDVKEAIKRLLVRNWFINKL
How it was run: (§1)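 Transient luciferase assays in mammalian cell lines were common, though methods varied by source. The values come from published papers and their supplementary material, with extra details from the original authors when needed. Responsive refers to a measured signal the original authors judged statistically different from baseline, and non-responsive (inactive) to the remainder.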

OR5T1 = system: T2, OR5T1
T2 sequence (whole entry): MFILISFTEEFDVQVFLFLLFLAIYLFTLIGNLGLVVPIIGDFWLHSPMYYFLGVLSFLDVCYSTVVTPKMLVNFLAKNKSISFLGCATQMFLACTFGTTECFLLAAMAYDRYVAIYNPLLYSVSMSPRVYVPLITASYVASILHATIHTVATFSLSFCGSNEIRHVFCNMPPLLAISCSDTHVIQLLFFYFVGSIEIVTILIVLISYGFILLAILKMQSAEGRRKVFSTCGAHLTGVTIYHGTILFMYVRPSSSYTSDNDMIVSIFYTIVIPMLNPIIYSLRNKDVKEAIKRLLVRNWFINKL
How it was run: as §1

OR5T2 [1] = system: T3, OR5T2
T3 sequence (whole entry): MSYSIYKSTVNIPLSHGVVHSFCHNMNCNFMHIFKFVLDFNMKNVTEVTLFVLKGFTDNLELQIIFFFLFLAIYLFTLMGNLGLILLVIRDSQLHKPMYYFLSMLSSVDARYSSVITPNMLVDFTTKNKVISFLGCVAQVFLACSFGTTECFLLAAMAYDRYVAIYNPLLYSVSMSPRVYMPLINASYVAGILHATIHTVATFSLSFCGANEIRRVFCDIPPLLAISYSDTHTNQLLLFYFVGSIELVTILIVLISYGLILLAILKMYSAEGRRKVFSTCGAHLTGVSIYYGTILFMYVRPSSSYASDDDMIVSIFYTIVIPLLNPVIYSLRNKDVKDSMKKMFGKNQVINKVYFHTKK
How it was run: as §1

OR5T2 [2] = system: T4, OR5T2; remark: listed apart in the source
T4 sequence (whole entry): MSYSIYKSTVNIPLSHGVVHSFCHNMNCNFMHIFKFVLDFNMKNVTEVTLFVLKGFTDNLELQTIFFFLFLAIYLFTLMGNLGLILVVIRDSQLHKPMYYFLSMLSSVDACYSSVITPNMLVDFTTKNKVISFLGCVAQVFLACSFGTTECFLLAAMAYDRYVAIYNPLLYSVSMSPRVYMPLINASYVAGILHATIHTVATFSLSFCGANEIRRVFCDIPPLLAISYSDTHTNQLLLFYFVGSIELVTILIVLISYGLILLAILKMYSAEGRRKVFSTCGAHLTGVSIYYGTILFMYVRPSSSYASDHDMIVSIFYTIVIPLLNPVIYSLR
How it was run: as §1

OR5T3 = system: T5, OR5T3
T5 sequence (whole entry): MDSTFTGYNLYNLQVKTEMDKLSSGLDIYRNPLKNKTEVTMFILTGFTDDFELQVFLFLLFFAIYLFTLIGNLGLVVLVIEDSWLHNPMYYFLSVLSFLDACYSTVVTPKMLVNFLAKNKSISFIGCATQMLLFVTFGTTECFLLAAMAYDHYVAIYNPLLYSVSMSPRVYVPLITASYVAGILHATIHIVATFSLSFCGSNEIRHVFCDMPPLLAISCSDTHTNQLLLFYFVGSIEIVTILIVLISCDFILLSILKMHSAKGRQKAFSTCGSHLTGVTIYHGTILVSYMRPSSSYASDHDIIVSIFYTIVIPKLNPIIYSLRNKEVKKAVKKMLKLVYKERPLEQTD
How it was run: as §1

OR5V1 (Homo sapiens) = molecular target: T6, OR5V1 (Homo sapiens) (UniProt Q9UGF6)
T6 sequence (whole entry): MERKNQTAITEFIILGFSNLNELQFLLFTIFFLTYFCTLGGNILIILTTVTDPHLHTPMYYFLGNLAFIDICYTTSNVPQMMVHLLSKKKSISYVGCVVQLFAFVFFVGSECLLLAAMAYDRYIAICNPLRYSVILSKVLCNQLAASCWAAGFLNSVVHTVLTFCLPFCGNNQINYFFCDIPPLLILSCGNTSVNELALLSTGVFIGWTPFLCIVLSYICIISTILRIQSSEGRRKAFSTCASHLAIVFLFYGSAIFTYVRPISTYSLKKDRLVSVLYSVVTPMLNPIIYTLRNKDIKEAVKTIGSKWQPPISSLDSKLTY
How it was run: as §1

OR5W2 = system: T7, OR5W2
T7 sequence (whole entry): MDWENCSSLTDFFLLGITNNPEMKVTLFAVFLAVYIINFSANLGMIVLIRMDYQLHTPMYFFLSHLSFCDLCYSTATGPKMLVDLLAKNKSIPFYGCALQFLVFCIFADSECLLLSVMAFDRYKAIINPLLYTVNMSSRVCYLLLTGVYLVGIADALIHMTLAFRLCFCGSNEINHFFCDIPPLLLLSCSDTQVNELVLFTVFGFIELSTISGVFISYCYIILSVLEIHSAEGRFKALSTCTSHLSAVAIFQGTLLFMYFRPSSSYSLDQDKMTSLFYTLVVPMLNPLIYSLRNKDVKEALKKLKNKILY
How it was run: as §1

OR6A2 (Homo sapiens) = molecular target: T8, OR6A2 (Homo sapiens) (UniProt O95222)
T8 sequence (whole entry): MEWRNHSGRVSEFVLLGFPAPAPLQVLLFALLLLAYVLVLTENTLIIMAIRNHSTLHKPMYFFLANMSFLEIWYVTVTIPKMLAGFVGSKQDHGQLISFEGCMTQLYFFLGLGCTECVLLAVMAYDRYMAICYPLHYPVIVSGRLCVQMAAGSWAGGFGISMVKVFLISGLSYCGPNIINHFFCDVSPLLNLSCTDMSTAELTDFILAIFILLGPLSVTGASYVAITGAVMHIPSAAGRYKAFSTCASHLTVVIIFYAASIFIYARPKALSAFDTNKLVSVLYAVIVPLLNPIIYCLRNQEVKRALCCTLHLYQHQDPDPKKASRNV
How it was run: as §1

OR6B1 = system: T9, OR6B1
T9 sequence (whole entry): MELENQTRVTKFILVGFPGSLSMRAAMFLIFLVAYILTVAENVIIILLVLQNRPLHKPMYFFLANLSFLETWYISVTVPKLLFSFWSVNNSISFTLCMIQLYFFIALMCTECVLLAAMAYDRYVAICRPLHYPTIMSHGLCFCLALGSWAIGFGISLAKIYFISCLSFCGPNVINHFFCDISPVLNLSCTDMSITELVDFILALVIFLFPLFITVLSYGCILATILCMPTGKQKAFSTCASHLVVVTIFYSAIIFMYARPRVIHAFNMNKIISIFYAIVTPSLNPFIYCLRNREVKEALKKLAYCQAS
How it was run: as §1

OR6B2 = system: T10, OR6B2
T10 sequence (whole entry): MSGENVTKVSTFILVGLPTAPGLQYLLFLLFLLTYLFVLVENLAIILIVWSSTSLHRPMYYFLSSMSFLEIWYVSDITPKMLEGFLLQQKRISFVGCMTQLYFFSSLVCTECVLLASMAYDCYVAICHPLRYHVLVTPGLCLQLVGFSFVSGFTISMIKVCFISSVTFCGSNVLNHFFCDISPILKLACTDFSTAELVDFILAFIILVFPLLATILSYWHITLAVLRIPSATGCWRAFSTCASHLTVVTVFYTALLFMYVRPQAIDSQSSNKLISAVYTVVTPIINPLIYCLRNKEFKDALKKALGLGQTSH
How it was run: as §1

OR6B3 = system: T11, OR6B3
T11 sequence (whole entry): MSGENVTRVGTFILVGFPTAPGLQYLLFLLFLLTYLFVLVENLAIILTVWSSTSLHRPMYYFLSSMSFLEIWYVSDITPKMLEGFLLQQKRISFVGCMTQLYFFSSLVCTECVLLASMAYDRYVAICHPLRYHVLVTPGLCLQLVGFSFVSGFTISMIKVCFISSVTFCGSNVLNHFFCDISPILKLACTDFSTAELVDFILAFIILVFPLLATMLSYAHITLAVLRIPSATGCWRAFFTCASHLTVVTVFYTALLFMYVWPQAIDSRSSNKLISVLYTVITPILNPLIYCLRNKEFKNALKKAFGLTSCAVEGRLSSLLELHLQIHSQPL
How it was run: as §1

OR6C1 = system: T12, OR6C1
T12 sequence (whole entry): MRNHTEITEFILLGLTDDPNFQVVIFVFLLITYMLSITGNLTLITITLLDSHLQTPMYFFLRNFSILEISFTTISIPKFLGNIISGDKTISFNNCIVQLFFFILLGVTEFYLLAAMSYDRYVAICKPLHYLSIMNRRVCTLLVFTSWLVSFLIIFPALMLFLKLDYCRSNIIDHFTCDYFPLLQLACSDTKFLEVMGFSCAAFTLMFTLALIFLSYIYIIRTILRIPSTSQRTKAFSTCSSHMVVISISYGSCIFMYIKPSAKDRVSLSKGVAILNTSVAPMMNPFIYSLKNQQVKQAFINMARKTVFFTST
How it was run: as §1

OR6C2 (Homo sapiens) = molecular target: T13, OR6C2 (Homo sapiens) (UniProt Q9NZP2)
T13 sequence (whole entry): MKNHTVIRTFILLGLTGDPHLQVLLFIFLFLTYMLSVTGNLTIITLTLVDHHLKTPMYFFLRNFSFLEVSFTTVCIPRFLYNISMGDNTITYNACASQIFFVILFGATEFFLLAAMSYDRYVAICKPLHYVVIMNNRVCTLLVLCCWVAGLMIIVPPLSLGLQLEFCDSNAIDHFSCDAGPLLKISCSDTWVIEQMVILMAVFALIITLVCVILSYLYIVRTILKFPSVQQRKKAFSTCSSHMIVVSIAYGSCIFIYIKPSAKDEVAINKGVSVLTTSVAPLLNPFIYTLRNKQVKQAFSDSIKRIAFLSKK
How it was run: as §1

OR6C3 (Homo sapiens) = molecular target: T14, OR6C3 (Homo sapiens) (UniProt Q9NZP0)
T14 sequence (whole entry): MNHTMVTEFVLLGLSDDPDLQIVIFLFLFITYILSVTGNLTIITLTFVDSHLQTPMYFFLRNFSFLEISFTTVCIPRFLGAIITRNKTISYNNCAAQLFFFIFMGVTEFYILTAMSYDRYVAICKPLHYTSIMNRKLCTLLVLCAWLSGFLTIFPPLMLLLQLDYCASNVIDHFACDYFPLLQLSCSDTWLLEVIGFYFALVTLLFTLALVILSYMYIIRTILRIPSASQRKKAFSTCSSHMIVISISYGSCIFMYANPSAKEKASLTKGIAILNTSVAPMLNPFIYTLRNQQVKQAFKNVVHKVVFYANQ
How it was run: as §1

Measured: odorant receptor agonist call

CC(=O)OC1CC2CCC1(C)C2(C)C (stereo unspecified)
inactive: all assays above

CCCCCCCC=O
inactive: all assays above

CCCCCCCCCCC=O
inactive: all assays above

Pulled one by one from above (2):
CCCCCCCCCCC=O
inactive: all assays above

CC(=O)OC1CC2CCC1(C)C2(C)C (stereo unspecified)
inactive: all assays above

The listing continues:

O=C1CCCCCCCCCCCC(=O)OCCO1
inactive: all assays above

CC=Cc1ccc(O)c(OC)c1
active: OR6A2 (Homo sapiens)
inactive: all other assays above

CCCCCCCCOC(C)=O
inactive: all assays above

COc1ccccc1O
inactive: all assays above

c1ccc(Oc2ccccc2)cc1
inactive: all assays above

CC12C=CCC1C1CCC3=CC(=O)CCC3(C)C1CC2 (stereo unspecified)
active: OR5V1 (Homo sapiens)
inactive: all other assays above
